Assay results: article PMC7819943, “Rice protein-binding microarrays: a tool to detect cis-acting elements near promoter regions in rice”
This is one part of the list.

The sequences below were run against T1, OsSMF1 (Oryza sativa, UniProt Q6ZLB0 1-436) (assay: protein-binding microarray (RPBM); PBS, 2% BSA, 51.3 ng/ul salmon testes DNA, 50 uM zinc acetate, 200 nM TF, 25 C, 1 h; high values mean tight binding). Conditions: protein: recombinant; tags: N-terminal polyhistidine and DsRed monomer fusion (pET32a); chain copies: 2; label: CyDye5-dUTP incorporated in the synthesized complementary strand; 3' TTTTT single-stranded linker to array surface; dsDNA, one strand shown.
T1 sequence: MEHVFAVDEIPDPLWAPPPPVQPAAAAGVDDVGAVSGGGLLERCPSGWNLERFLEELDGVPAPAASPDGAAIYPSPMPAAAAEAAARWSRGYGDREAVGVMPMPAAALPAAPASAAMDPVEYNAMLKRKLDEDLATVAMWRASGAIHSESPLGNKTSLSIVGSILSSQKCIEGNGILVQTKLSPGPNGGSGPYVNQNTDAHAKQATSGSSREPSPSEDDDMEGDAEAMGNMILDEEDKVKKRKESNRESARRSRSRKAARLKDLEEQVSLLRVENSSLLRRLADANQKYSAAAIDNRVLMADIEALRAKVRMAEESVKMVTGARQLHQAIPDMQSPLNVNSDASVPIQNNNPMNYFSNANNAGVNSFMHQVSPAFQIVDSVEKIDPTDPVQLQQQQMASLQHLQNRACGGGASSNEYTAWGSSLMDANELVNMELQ
Method in brief: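 Ni–NTA purification followed expression in E. coli BL21-CodonPlus of transcription factors fused N-terminally to a polyhistidine tag and DsRed. At 200 nM in PBS with 2% BSA, salmon testes DNA and 50 µM zinc acetate, the protein was incubated for 1 h at 25 °C with a custom Agilent array that had been primer-extended with Cy5-dUTP and blocked with 2% BSA. After washing, the array was read on an Axon 4000B scanner. The binding signal is per-feature fluorescence intensity in arbitrary units.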

In order of falling binding signal:
1. GATGGATTAAAATAGCTTCCCGAGTAGATAGATAGATTGACGGAGTCACCTAGTGCAG  32900 fluorescence intensity (a.u.)
2. TATTCTGATTGGAACTTATGAGTCTTGAATTCTTGATTCTCGGAGTCACCTAGTGCAG  29700 fluorescence intensity (a.u.)
3. CCGTGGAGGCAGCCGGAGGGATCGCTGGCAGGTCAAATGGCGGAGTCACCTAGTGCAG  29200 fluorescence intensity (a.u.)
4. AGCGGAATCTGGCTCCTCGAACTTAAGCTGAGCCACAGAACGGAGTCACCTAGTGCAG  25600 fluorescence intensity (a.u.)
5. GGATATTGGCCGCCGGCGGCGGCGGCGGCGAAGAAATTCGCGGAGTCACCTAGTGCAG  24600 fluorescence intensity (a.u.)
6. TTGGGAGAGAGGGGCTAAACTTTAGCCCCTCTCTCAAAACCGGAGTCACCTAGTGCAG  23800 fluorescence intensity (a.u.)
7. GTCATCCTCGGACGGCCGATGTGGGCCCCACACGTCAGCACGGAGTCACCTAGTGCAG  23600 fluorescence intensity (a.u.)
8. CTTTCCATGCGGACACGCCACGATGGCACGCCACGTAGGCCGGAGTCACCTAGTGCAG  22100 fluorescence intensity (a.u.)
9. CCGGATCGAATTGCCACGTAAGCGTCACGTCACTGCCACACGGAGTCACCTAGTGCAG  17100 fluorescence intensity (a.u.)
10. AAAATGTCATGTAACTACGCCATTGGACCATAAATATTTTCGGAGTCACCTAGTGCAG  13600 fluorescence intensity (a.u.)
11. TTTGCAACTTAATCCCTTGGACTAAACAGGCGAAAGGATGCGGAGTCACCTAGTGCAG  13400 fluorescence intensity (a.u.)
12. GGCGAGAGGGAGGAGACGCCACGTGGGCGGAGACAGTGGACGGAGTCACCTAGTGCAG  10400 fluorescence intensity (a.u.)
13. AGCTAGCTAGTGACGTGCGAACTGAAACGAGGGAGGCGAGCGGAGTCACCTAGTGCAG  9700 fluorescence intensity (a.u.)
14. CTCGTCCCTCCCTCCCTCCCCACTGTCCGCCGGACTGACGCGGAGTCACCTAGTGCAG  9180 fluorescence intensity (a.u.)
15. CTTTCCCTATCTTTCTCCTCATCATATGTGTCATGATGCACGGAGTCACCTAGTGCAG  9020 fluorescence intensity (a.u.)
16. ATATATGCACACAGGTTCTCGCGTGTACACCGTGTACACCCGGAGTCACCTAGTGCAG  8530 fluorescence intensity (a.u.)
17. TTATCCTGTCATCTCTTCCAGTCCACGCAAGCACGCCACTCGGAGTCACCTAGTGCAG  8230 fluorescence intensity (a.u.)
18. ACGATGGCCTCCACGAATGACGCGTCCCCTGCGCGCGACGCGGAGTCACCTAGTGCAG  6890 fluorescence intensity (a.u.)
19. TGTTCATGCTTAGAAGATGGCATTGCCACGTCCCAAGGGCCGGAGTCACCTAGTGCAG  6180 fluorescence intensity (a.u.)
20. GCGCTGGAGCGGAGGAGCGTGGGGAGGGCGTCGTGGCCCGCGGAGTCACCTAGTGCAG  5900 fluorescence intensity (a.u.)
21. ATGAATTTGGAGATAAGATTTTACACGTATGTATAATACTCGGAGTCACCTAGTGCAG  5680 fluorescence intensity (a.u.)
22. AGAGCCCACCAGCTGCACCGGCGTGGCATCGTCCACTTGGCGGAGTCACCTAGTGCAG  5060 fluorescence intensity (a.u.)
23. CTGCCTCGCCTCGTCTCGCGTCACCTCGCCAGATCCGGCGCGGAGTCACCTAGTGCAG  4960 fluorescence intensity (a.u.)
24. GCACAACATTGCTCTCCTCCTGTGTCAAACGTGTCAGTCCCGGAGTCACCTAGTGCAG  4880 fluorescence intensity (a.u.)
25. ACCGTACCATTATTGTTGCTACAGGTGTCAGTCGACACAACGGAGTCACCTAGTGCAG  4850 fluorescence intensity (a.u.)
26. ATACTGCTAGTATATAACTATATATGTCTGCATGTTCAGCCGGAGTCACCTAGTGCAG  4560 fluorescence intensity (a.u.)
27. CGTTTGCTTAGTTACGTATCACTGCTATCTTTGTCCCATACGGAGTCACCTAGTGCAG  4520 fluorescence intensity (a.u.)
28. ACCAAACACCGCAAAATAAACAGTCATCCTCCGCACCGCGCGGAGTCACCTAGTGCAG  4480 fluorescence intensity (a.u.)
29. TAGTTTTGTCCGACGTGACAATCTAAGTCAGTGTGGACCCCGGAGTCACCTAGTGCAG  4380 fluorescence intensity (a.u.)
30. ATGCTGAATTGGGTTGGGCTGGGGAGGAATTATAGACTATCGGAGTCACCTAGTGCAG  4260 fluorescence intensity (a.u.)
31. AACTAAGTCCGTACACACAAACTAGTCATGTTCAACAGGACGGAGTCACCTAGTGCAG  4140 fluorescence intensity (a.u.)
32. ACGCCGTGATTTGAGGTTGATCTTGATGAGTGCTACTCTACGGAGTCACCTAGTGCAG  4110 fluorescence intensity (a.u.)
33. TGTTAAGAAAATAGATTATATCTTTGTCATCCAAATTTCCCGGAGTCACCTAGTGCAG  4050 fluorescence intensity (a.u.)
34. GAAGCGGCTCGCGCGGCCGCCACATCTTCCGATCCTCTCGCGGAGTCACCTAGTGCAG  4000 fluorescence intensity (a.u.)
35. GAAACGCCAGGTGGGCCCCACCTGCATCACTGACAGCCTGCGGAGTCACCTAGTGCAG  3900 fluorescence intensity (a.u.)
36. AGTCCCTGCTTATGTTTGAAGATATGACGAAGCAAGGCGTCGGAGTCACCTAGTGCAG  3840 fluorescence intensity (a.u.)
37. GGCGAGGGCGAGCACAGCAGGCAAGGCGATGGTGAGGATTCGGAGTCACCTAGTGCAG  3780 fluorescence intensity (a.u.)
38. AATTGGACAATTCATCATAAATTTTGCATGAATGATGACACGGAGTCACCTAGTGCAG  3750 fluorescence intensity (a.u.)
39. GTAGTGGGTTTCTAGCATGACGAATTGGACCGTAGTGGTACGGAGTCACCTAGTGCAG  3700 fluorescence intensity (a.u.)
40. AGGATGGAGAGTATTGTTGCCGCGTGTTCTTCCAGGCACCCGGAGTCACCTAGTGCAG  3640 fluorescence intensity (a.u.)
41. CGAAATTTAATGGCGCCATATATTAAAACACGGAGGGAGTCGGAGTCACCTAGTGCAG  3610 fluorescence intensity (a.u.)
42. CCAAGAGAGAGGAGGAGGAGGAGGAGGAGTCGTGGGTCAGCGGAGTCACCTAGTGCAG  3610 fluorescence intensity (a.u.)
43. CGGAGAGGGAGAAGGAGAGGAGAGGGGCTGATAGGTGGGGCGGAGTCACCTAGTGCAG  3520 fluorescence intensity (a.u.)
44. AACATCCACTGTCATGTTCTCTAATTCTATTGGATGCATGCGGAGTCACCTAGTGCAG  3490 fluorescence intensity (a.u.)
45. CGCGCAAGCTATAGCTGACTCGCTCCTAGCTACTCCACATCGGAGTCACCTAGTGCAG  3480 fluorescence intensity (a.u.)
46. ATGCAGGTCCCGTGTAGTATTATCTTATGCGGATTGCTTGCGGAGTCACCTAGTGCAG  3410 fluorescence intensity (a.u.)
47. TTGATTTGTTACGTGTATATAATGGTTTGTTAAATTTGAACGGAGTCACCTAGTGCAG  3340 fluorescence intensity (a.u.)
48. GCGCCATTGCCACGAATACGCGGCCCATAGAGAATTTGGCCGGAGTCACCTAGTGCAG  3280 fluorescence intensity (a.u.)
49. AAGATGGGGAAGGGGATAGGCGGCTGGCGTGCGATGGCGGCGGAGTCACCTAGTGCAG  3270 fluorescence intensity (a.u.)
50. TCTCGGTGACGGCGGCCTCGTCCCACTCCCGCCCGGGGATCGGAGTCACCTAGTGCAG  3260 fluorescence intensity (a.u.)
51. CAATCCACATCTTGATTTGTGCTGCGTGTTTCCCGTCTGTCGGAGTCACCTAGTGCAG  3210 fluorescence intensity (a.u.)
52. CCAAATAAGTTAGACCTTGGTTCCAATCGTTTAAGATGTGCGGAGTCACCTAGTGCAG  3180 fluorescence intensity (a.u.)
53. ATCTTGCCGAAGTTGTTGGTGACGAAGTCGAGGCTGCCGACGGAGTCACCTAGTGCAG  3180 fluorescence intensity (a.u.)
54. ATCCACCACCTCCTCCTCCCGTCTCCGGCGACCGCCGCCGCGGAGTCACCTAGTGCAG  3170 fluorescence intensity (a.u.)
